# Library screening results

Measurements from “University of Dundee, Small-Polar-MMV Screening Library” (2021), ChEMBL document CHEMBL3988442.

A: 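Whole-cell assay for inhibitors of Mycobacterium tuberculosis growth, labelled Cornell in the record; the read-out is not stated. The concentration is filed as 10 mM, unlikely as a test dose, so the dose is not known. The record gives no direction; compounds strong in two other growth screens of this library score well above the rest, so higher reads as stronger inhibition. Of about 53,000 compounds tested this way, about 900 (1.7%) reached 50% or more in at least one test.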
B: 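Assay on Mycobacterium tuberculosis, filed only as a heat shock assay from Cornell; the read-out is not stated. The concentration is filed as 10 mM, unlikely as a test dose, so the dose is not known. The record gives no direction; compounds that gave an IC50 in retests scored well above the rest, so higher reads as stronger inhibition. Of about 69,000 compounds tested this way, about 930 (1.4%) reached 50% or more in at least one test.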

Each number is a percent effect as filed.
The record does not define 0% and 100%; most values in the screen are far below 50% and negative numbers occur (in some assays of this library far below -100).
Compounds were drawn at random from those tested, without regard to their results.

For CCc1nsc(N2CCN(CC(=O)Nc3c(C)n[nH]c3C)CC2)n1 the result was A: 5.822%; B: 31.97%. Result for CCSc1ncc(CN2CC[C@@](O)(COC)C(C)(C)C2)cn1 was A: 9.681%; B: 18.77%. COc1ccc(C(=O)N2CCN(C(=O)CCCc3cn[nH]c3)CC2)cc1 read A: 1.55%; B: 2.628%. COCCN1CCC(CNC(=O)CCc2cc(F)ccc2F)C1 (stereo not shown) read B: -17.02%. With Cc1c(-c2c(-c3ccccc3)ncn2[C@@H](C(=O)O)[C@H](C)O)cnn1C the screen gave B: -7.05%. Result for [H][C@@]12CN(Cc3scnc3C)C[C@@H](C(=O)NCC3CC3)[C@]1([H])CCO2 was A: -4.608%; B: -1.169%. With COCCC(=O)N1CCC(c2nnc(-c3ccsc3)o2)CC1 the screen gave A: 20.78%; B: -6.798%. CC(C)n1ccc2c(C(=O)NC3CN4CCC3CC4)cccc21 (stereo not shown) read A: -5.793%; B: -29.76%.

For COc1ccc(OCCN(C)S(=O)(=O)c2cnn(C)c2)cc1 the result was A: -10.47%; B: 11.74%. For CCOc1ccccc1-n1c(-c2cn(CC)nc2C)n[nH]c1=O the result was A: -24.45%; B: -8.717%. COCCn1ccnc1C1CCCN(c2cc(OC)nc(N)n2)C1 (stereo not shown) gave A: -21.54%; B: -29.61%. With CCOCC1CN(C(=O)Cc2ccsc2)Cc2ccnn2C1.O=C(O)C(F)(F)F (stereo not shown) the screen gave A: 22.83%; B: 2.772%. Cc1cnc(C(=O)N2CCCC(n3nc(C)nc3C)C2)cn1 (stereo not shown) gave B: 6.549%. With Cc1c(CCC(=O)N2CCCC2c2ccnc(N(C)C)c2)cnn1C (stereo not shown) the screen gave A: -10.05%; B: 10.5%. For Cc1ccc(CN2CCOCC2)cc1NCc1ccsc1 the result was B: -5.343%. With CC(NC(=O)CN1C=Nc2ccccc2S1(=O)=O)c1ccccc1 (stereo not shown) the screen gave A: 4.455%; B: 4.745%.

Cc1nc[nH]c1CN1CCc2nc3scc(C)c3c(=O)n2CC1.Cl gave A: -14.7%; B: -7.316%. With [H][C@@]12CS(=O)(=O)C[C@]1([H])N(Cc1nccn1C)CCN2Cc1ccccc1 the screen gave B: -25.58%. For CC(C)c1ocnc1C(=O)N1CCC2(CC1)OCCO2 the result was A: 28.53%; B: -3.552%. With Cn1cc(CCN2CCOC(CNc3cccnn3)C2)cn1 (stereo not shown) the screen gave B: -14.16%. Cc1ccc(C(=O)N2CCC3(CC2)CC(c2ccccc2)C(=O)N3)o1 (stereo not shown) gave A: 22.98%; B: -6.809%. With CCn1cnnc1CCNC(=O)c1ccc(F)c(Br)c1 the screen gave A: 21.32%; B: -12.55%. Result for O=C(O)C(F)(F)F.[H][C@@]12COC[C@]1([H])[C@@H](OCC(=O)N(C)C)CN2Cc1ccc2c(c1)OCO2 was A: -12.44%; B: 36.04%. Cc1nn(C)c(C)c1C1CCCN1CCOc1ccccc1C#N (stereo not shown) read A: -3.074%; B: 10.94%.

O=C(c1cccs1)N1CCCn2cnc(COCC3CC3)c2C1 read A: 15.95%; B: 2.002%. Cn1ccc(CN2CCC(OCCc3ccccc3)CC2)cc1=O gave A: -21.27%; B: 10.53%. Cc1ccc2c(CC(=O)N(C)CCN(C)C)c(C)[nH]c2c1C.O=C(O)CC(O)(CC(=O)O)C(=O)O read A: 8.878%; B: -10.58%. For COc1ccc(CC(=O)NCCNS(=O)(=O)c2ccc(C)cc2)cc1 the result was A: -20.19%; B: -2.789%. Result for Cc1cnn(-c2ccc(C(=O)N3CCCC(n4ccnc4C)C3)cc2)c1 (stereo not shown) was A: 7.4%; B: -1.937%. For Cn1cccc1C(=O)N1CCCC1c1ccc(CN2CCOCC2)cn1 (stereo not shown) the result was A: 3.971%; B: -21.1%. For O=C(O)C(=O)O.c1cncc(-c2noc(C3CN(Cc4cccs4)C3)n2)c1 the result was A: 25.17%; B: 11.14%. Result for CN(C)[C@@H]1CCN(C(=O)c2ccsc2)[C@H]1Cc1cnn(C)c1 was B: 4.524%.